Results: article PMC11555651 (Biochemical Journal, 2024)
These are yes or no findings as the source states them, for the method shown. Some binding calls cover weakened binding; strength is not graded here.

The chains behind the UniProt entries cited, without tags or fusion partners. Where a name states a change or a piece, a line headed by the entry shows the natural chain unless it says otherwise. Residues count along the entry.
UniProt P04198, residues 1-137: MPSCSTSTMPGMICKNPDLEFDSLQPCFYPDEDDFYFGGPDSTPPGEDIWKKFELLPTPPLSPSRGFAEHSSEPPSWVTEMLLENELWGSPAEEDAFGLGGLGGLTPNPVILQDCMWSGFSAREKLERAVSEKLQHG
UniProt Q969H0: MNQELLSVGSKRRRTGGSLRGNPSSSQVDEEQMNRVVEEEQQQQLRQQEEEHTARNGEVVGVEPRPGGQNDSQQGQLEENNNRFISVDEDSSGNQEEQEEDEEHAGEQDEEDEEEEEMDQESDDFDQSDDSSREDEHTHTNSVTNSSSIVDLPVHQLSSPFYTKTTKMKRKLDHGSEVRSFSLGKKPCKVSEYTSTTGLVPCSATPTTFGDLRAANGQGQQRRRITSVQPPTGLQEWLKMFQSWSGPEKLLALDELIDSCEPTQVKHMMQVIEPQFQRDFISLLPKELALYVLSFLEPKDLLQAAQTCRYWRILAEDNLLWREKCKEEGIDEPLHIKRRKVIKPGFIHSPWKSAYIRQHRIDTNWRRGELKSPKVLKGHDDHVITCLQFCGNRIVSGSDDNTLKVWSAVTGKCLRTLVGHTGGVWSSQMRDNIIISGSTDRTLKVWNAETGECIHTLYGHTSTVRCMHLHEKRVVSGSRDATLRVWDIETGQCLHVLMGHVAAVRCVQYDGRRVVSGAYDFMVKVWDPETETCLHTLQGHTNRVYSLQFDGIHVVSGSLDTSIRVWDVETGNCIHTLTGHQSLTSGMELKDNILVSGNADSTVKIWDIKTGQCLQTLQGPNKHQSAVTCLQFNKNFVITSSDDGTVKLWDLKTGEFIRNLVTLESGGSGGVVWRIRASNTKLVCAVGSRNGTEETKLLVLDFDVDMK

What was measured:
Test in all cases: NMR titration; 1H-15N HSQC of ~50 uM 15N-labelled 3xFLAG-N-myc(1-137); Fbxw7–Skp1 (550 uM stock) added up to [N-myc]:[Fbxw7–Skp1] 1:2; TBS buffer; kinases quenched with 8 mM EDTA; both purified
[1] = biological target: 3xFLAG-N-myc_(1–137) pSer62 (UniProt P04198)
[2] = biological target: 3xFLAG-N-myc_(1–137), unphosphorylated (UniProt P04198)
[3] = biological target: 3xFLAG-N-myc_(1–137) pThr58 pSer62 (UniProt P04198)

binding [1]: binds weakly
binding [2]: binds weakly
binding [3]: binds
Substance: Fbxw7–Skp1 complex (from UniProt Q969H0 261-706; P63208 1-163)
